Source: paper PMC8522249
No constants are given. Whether binding was seen depends on the method and setting. Binding seen in cells or lysates may run through a third protein. Some binding calls cover weakened binding; strength is not graded here.

Chains of the proteins cited; added tags and fusions are not shown. Residues count along the entry.
UniProt P05067, residues 672-770: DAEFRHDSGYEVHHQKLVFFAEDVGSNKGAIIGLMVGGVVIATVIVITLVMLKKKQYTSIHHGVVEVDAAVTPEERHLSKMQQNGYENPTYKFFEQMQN
UniProt P60468: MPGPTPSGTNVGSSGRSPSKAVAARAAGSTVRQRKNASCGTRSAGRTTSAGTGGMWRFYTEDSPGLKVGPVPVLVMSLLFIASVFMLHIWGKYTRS

What was measured:
[1] = target: APP.C99 (amyloid precursor protein C-terminal fragment), full-length species (human) (UniProt P05067); assay: co-IP; IP of APP.C99 from transfected HeLa cells (the methods list 6E10), protein A/G beads; blots for ribosome-associated QC factors
[2] = target: Sec61B (ER translocon protein) (human (endogenous in HeLa)) (UniProt P60468); assay: pull-down; ER translocon and associated proteins captured on concanavalin A (ConA) agarose beads from extracts or crude membrane fractions of HeLa cells, untransfected or transfected with APP.C99, 2 h at 4 °C; beads also treated with RNase A (1 µg/ml, 37 °C, 30 min) or EDTA (50 mM, on ice, 30 min)

| binding [1] | binding [2] | Binder |
| --- | --- | --- |
| binds | binds | ZNF598 (protein, UniProt Q86UK7 1-904) MAAAGGAEGRRAALEAAAAAAPERGGGSCVLCCGDLEATALGRCDHPVCYRCSTKMRVLCEQRYCAVCREELRQVVFGKKLPAFATIPIHQLQHEKKYDIYFADGKVYALYRQLLQHECPRCPELPPFSLFGDLEQHMRRQHELFCCRLCLQHLQIFTYERKWYSRKDLARHRMQGDPDDTSHRGHPLCKFCDERYLDNDELLKHLRRDHYFCHFCDSDGAQDYYSDYAYLREHFREKHFLCEEGRCSTEQFTHAFRTEIDLKAHRTACHSRSRAEARQNRHIDLQFSYAPRHSRRNEGVVGGEDYEEVDRYSRQGRVARAGTRGAQQSRRGSWRYKREEEDREVAAAVRASVAAQQQEEARRSEDQEEGGRPKKEEAAARGPEDPRGPRRSPRTQGEGPGPKETSTNGPVSQEAFSVTGPAAPGCVGVPGALPPPSPKLKDEDFPSLSASTSSSCSTAATPGPVGLALPYAIPARGRSAFQEEDFPALVSSVPKPGTAPTSLVSAWNSSSSSKKVAQPPLSAQATGSGQPTRKAGKGSRGGRKGGPPFTQEEEEDGGPALQELLSTRPTGSVSSTLGLASIQPSKVGKKKKVGSEKPGTTLPQPPPATCPPGALQAPEAPASRAEGPVAVVVNGHTEGPAPARSAPKEPPGLPRPLGSFPCPTPQEDFPALGGPCPPRMPPPPGFSAVVLLKGTPPPPPPGLVPPISKPPPGFSGLLPSPHPACVPSPATTTTTKAPRLLPAPRAYLVPENFRERNLQLIQSIRDFLQSDEARFSEFKSHSGEFRQGLISAAQYYKSCRDLLGENFQKVFNELLVLLPDTAKQQELLSAHTDFCNREKPLSTKSKKNKKSAWQATTQQAGLDCRVCPTCQQVLAHGDASSHQALHAARDDDFPSLQAIARIIT |
| binds weakly | – | NEMF (protein, UniProt O60524 1-1076) MKSRFSTIDLRAVLAELNASLLGMRVNNVYDVDNKTYLIRLQKPDFKATLLLESGIRIHTTEFEWPKNMMPSSFAMKCRKHLKSRRLVSAKQLGVDRIVDFQFGSDEAAYHLIIELYDRGNIVLTDYEYVILNILRFRTDEADDVKFAVRERYPLDHARAAEPLLTLERLTEIVASAPKGELLKRVLNPLLPYGPALIEHCLLENGFSGNVKVDEKLETKDIEKVLVSLQKAEDYMKTTSNFSGKGYIIQKREIKPSLEADKPVEDILTYEEFHPFLFSQHSQCPYIEFESFDKAVDEFYSKIEGQKIDLKALQQEKQALKKLDNVRKDHENRLEALQQAQEIDKLKGELIEMNLQIVDRAIQVVRSALANQIDWTEIGLIVKEAQAQGDPVASAIKELKLQTNHVTMLLRNPYLLSEEEDDDVDGDVNVEKNETEPPKGKKKKQKNKQLQKPQKNKPLLVDVDLSLSAYANAKKYYDHKRYAAKKTQKTVEAAEKAFKSAEKKTKQTLKEVQTVTSIQKARKVYWFEKFLWFISSENYLIIGGRDQQQNEIIVKRYLTPGDIYVHADLHGATSCVIKNPTGEPIPPRTLTEAGTMALCYSAAWDARVITSAWWVYHHQVSKTAPTGEYLTTGSFMIRGKKNFLPPSYLMMGFSFLFKVDESCVWRHQGERKVRVQDEDMETLASCTSELISEEMEQLDGGDTSSDEDKEEHETPVEVELMTQVDQEDITLQSGRDELNEELIQEESSEDEGEYEEVRKDQDSVGEMKDEGEETLNYPDTTIDLSHLQPQRSIQKLASKEESSNSSDSKSQSRRHLSAKERREMKKKKLPSDSGDLEALEGKDKEKESTVHIETHQNTSKNVAAVQPMKRGQKSKMKKMKEKYKDQDEEDRELIMKLLGSAGSNKEEKGKKGKKGKTKDEPVKKQPQKPRGGQRVSDNIKKETPFLEVITHELQDFAVDDPHDDKEEQDLDQQGNEENLFDSLTGQPHPEDVLLFAIPICAPYTTMTNYKYKVKLTPGVQKKGKAAKTALNSFMHSKEATAREKDLFRSVKDTDLSRNIPGKVKVSAPNLLNVKRK |
| no binding | – | ANKZF1 (protein, UniProt Q9H8Y5 1-726) MSPAPDAAPAPASISLFDLSADAPVFQGLSLVSHAPGEALARAPRTSCSGSGERESPERKLLQGPMDISEKLFCSTCDQTFQNHQEQREHYKLDWHRFNLKQRLKDKPLLSALDFEKQSSTGDLSSISGSEDSDSASEEDLQTLDRERATFEKLSRPPGFYPHRVLFQNAQGQFLYAYRCVLGPHQDPPEEAELLLQNLQSRGPRDCVVLMAAAGHFAGAIFQGREVVTHKTFHRYTVRAKRGTAQGLRDARGGPSHSAGANLRRYNEATLYKDVRDLLAGPSWAKALEEAGTILLRAPRSGRSLFFGGKGAPLQRGDPRLWDIPLATRRPTFQELQRVLHKLTTLHVYEEDPREAVRLHSPQTHWKTVREERKKPTEEEIRKICRDEKEALGQNEESPKQGSGSEGEDGFQVELELVELTVGTLDLCESEVLPKRRRRKRNKKEKSRDQEAGAHRTLLQQTQEEEPSTQSSQAVAAPLGPLLDEAKAPGQPELWNALLAACRAGDVGVLKLQLAPSPADPRVLSLLSAPLGSGGFTLLHAAAAAGRGSVVRLLLEAGADPTVQDSRARPPYTVAADKSTRNEFRRFMEKNPDAYDYNKAQVPGPLTPEMEARQATRKREQKAARRQREEQQQRQQEQEEREREEQRRFAALSDREKRALAAERRLAAQLGAPTSPIPDSAIVNTRRCWSCGASLQGLTPFHYLDFSFCSTRCLQDHRRQAGRPSS |
